Drawing on patent publication US20160115234A1 (Biogen, published 2016), this text covers binding for 2 molecules.

Sequences of proteins named here, by UniProt entry; tags and fusion partners are left off. A change or cut given only in a name is not applied to a line headed by its entry.
UniProt P08514: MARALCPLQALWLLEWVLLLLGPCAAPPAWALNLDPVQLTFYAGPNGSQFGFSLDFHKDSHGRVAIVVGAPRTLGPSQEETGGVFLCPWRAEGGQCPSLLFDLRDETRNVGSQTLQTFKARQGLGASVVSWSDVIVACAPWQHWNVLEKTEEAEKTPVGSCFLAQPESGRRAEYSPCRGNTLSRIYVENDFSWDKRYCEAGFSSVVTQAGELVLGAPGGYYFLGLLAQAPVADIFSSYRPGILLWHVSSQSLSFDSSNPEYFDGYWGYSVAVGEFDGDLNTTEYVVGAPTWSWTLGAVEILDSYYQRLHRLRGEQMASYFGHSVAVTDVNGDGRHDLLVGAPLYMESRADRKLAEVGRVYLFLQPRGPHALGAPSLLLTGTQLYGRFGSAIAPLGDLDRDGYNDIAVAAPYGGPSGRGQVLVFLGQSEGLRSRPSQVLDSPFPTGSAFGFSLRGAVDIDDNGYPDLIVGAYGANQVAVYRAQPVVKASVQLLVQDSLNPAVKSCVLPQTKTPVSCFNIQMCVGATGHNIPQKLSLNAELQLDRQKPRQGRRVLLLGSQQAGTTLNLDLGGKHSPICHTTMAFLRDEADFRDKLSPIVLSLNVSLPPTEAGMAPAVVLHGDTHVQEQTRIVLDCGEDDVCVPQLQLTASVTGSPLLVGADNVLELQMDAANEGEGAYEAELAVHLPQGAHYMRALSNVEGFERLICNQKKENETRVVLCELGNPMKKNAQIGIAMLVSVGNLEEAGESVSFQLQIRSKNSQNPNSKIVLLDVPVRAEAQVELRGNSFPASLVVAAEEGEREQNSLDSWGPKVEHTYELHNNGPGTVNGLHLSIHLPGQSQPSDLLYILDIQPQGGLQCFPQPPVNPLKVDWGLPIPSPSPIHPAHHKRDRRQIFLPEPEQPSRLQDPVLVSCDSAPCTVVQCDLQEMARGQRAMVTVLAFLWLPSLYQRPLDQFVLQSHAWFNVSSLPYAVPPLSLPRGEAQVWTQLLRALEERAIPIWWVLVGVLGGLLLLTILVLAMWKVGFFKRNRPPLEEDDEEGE

Results are given in words; binding and its absence hold for the method and conditions named. Some results given as binding are weak or reduced against the parent protein; the word gives no strength.

This test has as its target human GPIIb/IIIa (Calbiochem Cat No. 528240) (human) (UniProt P08514). The test can be described thus: ELISA, hybridoma supernatant.

B1: 34D10 (antibody, V domains shown)
VH: EVKLVESGGGLVKPGGSLKLSCAASGFTFSAYAMSWVRQTPEKRLEWVASISSGGTTYYPDSVKRRFTISRDNARNILYLQMSSLRSEDTAMYYCTRGGDYGYALDYWGQGTSVTVSS
VL: ENVLTQSPAIMSASLGEKVTMSCRASSSVNYMYWYQQKSDASPKLWIYYTSNLAPGVPARFSGSGSGNSYSLTISSMEGEDAATYYCQQFSSSPWTFGGGTKLEIKR
notes: Mouse hybridoma monoclonal tested as supernatant
In the case of B1, the binding entry is “binds”.

B2: 1H6 (antibody, V domains shown)
VH: QVQLQQSGAELVRPGTSVKVSCKASGYAFTNYLIEWVKQRPGQGLEWIGVINPGSGGTNYNEKFKGKATLTADKSSSTAYMHLSSLTSDDSAVYFCARGRYEWYFDVWGAGTTVTVSS
VL: DIQMTQTTSSLSASLGDRVTISCRASQDITNYLNWYQRKPDGTVKLLIYYTSRLHSGVPSRFSGSGSGTDYSLTISNLEQEDIATYFCQQGYTLPYTFGGGTKLEIKR
notes: as for B1
Regarding B2, the binding entry is reported as “binds”.
